Measurements reported in PMC10580074.
No constants are given. Whether binding was seen depends on the method and setting. In cells and extracts the contact can be indirect. Some results given as binding are weak or reduced against the parent protein; the word gives no strength.

Chains of the proteins cited; added tags and fusions are not shown. Residues count along the entry.
UniProt P36544, residues 23-502: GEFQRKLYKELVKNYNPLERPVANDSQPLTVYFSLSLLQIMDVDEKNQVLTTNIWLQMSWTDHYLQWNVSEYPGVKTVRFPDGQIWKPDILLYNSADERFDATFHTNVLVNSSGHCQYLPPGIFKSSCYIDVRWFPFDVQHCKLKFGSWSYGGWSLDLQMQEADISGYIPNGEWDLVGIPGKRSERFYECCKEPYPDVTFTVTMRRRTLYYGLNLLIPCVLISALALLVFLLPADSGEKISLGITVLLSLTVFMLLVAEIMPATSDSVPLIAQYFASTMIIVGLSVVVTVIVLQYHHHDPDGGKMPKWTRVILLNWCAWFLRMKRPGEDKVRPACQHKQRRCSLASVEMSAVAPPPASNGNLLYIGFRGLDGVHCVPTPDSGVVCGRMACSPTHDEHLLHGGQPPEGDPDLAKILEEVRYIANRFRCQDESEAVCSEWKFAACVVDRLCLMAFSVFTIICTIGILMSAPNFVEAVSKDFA

Molecular target: T1, Secreted Ly6/uPAR-Related Protein 1 (SLURP-1), recombinant (human) (UniProt P55000)
T1 sequence: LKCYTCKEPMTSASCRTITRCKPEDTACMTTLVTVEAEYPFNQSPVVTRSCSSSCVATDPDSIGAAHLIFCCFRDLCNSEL
Test: pull-down; SLURP-1 or Oncotag (1 mg/mL) coupled to PureProteome magnetic beads, blocked by 500 mM ethanolamine + 5% non-fat dry milk; tumour lysate (2% Triton X-100, diluted 10 times with TBS: 100 mM TRIS, 150 mM NaCl, pH 8.0) incubated 16 h at 4°C; washes TBS, TBS + 1 M NaCl + 0.5% Triton X-100, TBS + 0.5% Triton X-100; elution 200 mM glycine pH 2.6; Western blot; only the target purified

binding | Substance
binds | epidermal growth factor receptor (EGFR) (from UniProt P00533 25-1210)
binds | α7-type nicotinic acetylcholine receptor (α7-nAChR) (from UniProt P36544 23-502)
